Source: patent US20130217865A1
These are yes or no findings as the source states them, for the method shown. Some results given as binding are weak or reduced against the parent protein; the word gives no strength.

Key:
[1] = target: T1, recombinant alpha-fetoprotein (AFP), 67 kDa, from RDI (UniProt P02771); assay: SDS-PAGE / Western blot
T1 sequence (looked up): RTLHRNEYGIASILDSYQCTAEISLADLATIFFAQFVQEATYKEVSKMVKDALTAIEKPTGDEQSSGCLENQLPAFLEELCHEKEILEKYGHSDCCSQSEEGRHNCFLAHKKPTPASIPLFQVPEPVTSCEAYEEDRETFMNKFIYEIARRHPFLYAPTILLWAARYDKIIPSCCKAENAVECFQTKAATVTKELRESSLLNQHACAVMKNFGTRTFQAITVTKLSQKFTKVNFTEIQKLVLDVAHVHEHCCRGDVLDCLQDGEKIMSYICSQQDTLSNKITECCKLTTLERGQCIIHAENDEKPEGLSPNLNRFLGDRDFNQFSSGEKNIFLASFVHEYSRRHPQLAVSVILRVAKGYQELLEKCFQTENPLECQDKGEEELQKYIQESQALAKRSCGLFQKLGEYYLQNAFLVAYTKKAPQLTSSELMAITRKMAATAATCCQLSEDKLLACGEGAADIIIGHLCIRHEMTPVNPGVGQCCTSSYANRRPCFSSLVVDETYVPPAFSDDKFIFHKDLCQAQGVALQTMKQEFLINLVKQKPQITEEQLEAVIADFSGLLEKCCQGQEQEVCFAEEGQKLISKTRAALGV

[2] = target: T1, recombinant alpha-fetoprotein (AFP), 67 kDa, from RDI; assay: Western blot of recombinant AFP probed with VB1-008 (FIG. 15A)
[3] = target: T1, recombinant alpha-fetoprotein (AFP), 67 kDa, from RDI; assay: SDS-PAGE / Western blot of 0.3 µg recombinant AFP probed with VB1-008

binding [1]: binds
binding [2]: binds
binding [3]: binds
B1: VB1-008 monoclonal antibody (antibody, human IgG1, V domains shown)
VH: QVQLQELGPRLVRPSQTLILTCTVSGGSVSGDEYYWSWLRQTPGKGLEWIGYMSYRGSSYYSPSLQSRVTIAVDRSKNEFSLKLTSVTAADAAVYFCARKYCGGDCRSGFDIWGRGTMVTVAS
VL: YELTQPPSVSVSPGQKAFITCSGDNLGNKYVCWYQQKPGQSPVLVIYEDTKRPSGIPERFSASNSGNTATLTISGTQPIDEADYYCQAWDSRTEIFGTGTKVTVLS
